# The entries are a selection whose mix differs from that of the whole data set. At the low end of the ranking, values are background and their order means little.
# Chains of the proteins cited; added tags and fusions are not shown. Lines headed by an entry give the natural chain unless they say otherwise; changes in a name come on top.
# UniProt O43186: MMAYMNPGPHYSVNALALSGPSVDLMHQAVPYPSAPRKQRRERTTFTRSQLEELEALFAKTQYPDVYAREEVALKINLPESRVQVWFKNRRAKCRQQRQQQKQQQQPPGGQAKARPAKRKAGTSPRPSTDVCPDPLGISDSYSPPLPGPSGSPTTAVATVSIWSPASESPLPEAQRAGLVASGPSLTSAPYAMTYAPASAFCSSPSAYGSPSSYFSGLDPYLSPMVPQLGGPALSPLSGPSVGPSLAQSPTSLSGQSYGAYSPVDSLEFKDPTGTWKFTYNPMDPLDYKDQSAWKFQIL
# Experiments:
# Experiment in all cases: DAPPL (digital affinity profiling via proximity ligation, sequencing)
# Conditions in all cases: 10 mM Tris-HCl pH 7.5, 50 mM NaCl, 1 mM DTT, 4% glycerol, room temperature, 30 min; GST-TFs on glutathione beads, 16-mer random dsDNA library, 0.1% …; high values mean tight binding; double strand, one strand shown; scale: fold enrichment (6-mer frequency, TF over GST control)
# FEV = target: T1, FEV (UniProt Q99581)
# T1 sequence: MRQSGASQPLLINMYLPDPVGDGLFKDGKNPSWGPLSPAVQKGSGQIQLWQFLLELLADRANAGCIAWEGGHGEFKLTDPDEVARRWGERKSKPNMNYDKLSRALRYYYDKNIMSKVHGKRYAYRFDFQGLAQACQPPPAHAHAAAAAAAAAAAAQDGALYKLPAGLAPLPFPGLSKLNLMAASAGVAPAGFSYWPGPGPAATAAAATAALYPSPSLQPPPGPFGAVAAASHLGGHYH
# CRX = CRX (UniProt O43186)
# ELF5 = target: T2, ELF5 (UniProt Q9UKW6-2)
# T2 sequence: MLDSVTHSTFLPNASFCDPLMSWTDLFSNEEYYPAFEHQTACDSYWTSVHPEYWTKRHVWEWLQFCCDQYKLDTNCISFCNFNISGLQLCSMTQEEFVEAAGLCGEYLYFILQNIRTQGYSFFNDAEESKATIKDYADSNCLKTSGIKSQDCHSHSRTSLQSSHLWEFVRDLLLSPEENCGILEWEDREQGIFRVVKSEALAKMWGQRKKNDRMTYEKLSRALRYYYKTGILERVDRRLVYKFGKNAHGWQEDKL
Sequence,binding signal (FEV),binding signal (CRX),binding signal (ELF5)
GGACTC,0.967,0.751,0.939
ATCAGA,0.905,1.25,0.909
CCGCAA,1.29,1.01,1.39
CCAACG,1.14,0.882,1.1
CACGGC,0.944,0.811,0.939
GTGGTT,0.876,0.708,0.985
AAGGGA,0.898,0.97,0.948
CAACTG,1.14,0.844,1.08
CACTAG,0.972,0.915,0.91
CATCCA,0.934,0.873,0.932
GTCTAG,0.796,0.864,0.799
CCGTTA,0.957,0.872,0.986
CCCGCG,0.936,0.763,0.941
GGTATG,0.941,0.675,0.963
AAACAG,0.977,0.795,1.03
GAAGAT,0.812,1.12,0.923
CTGGCG,0.803,0.629,0.757
GCCGTC,0.927,0.738,0.946
CATTGA,0.95,0.842,0.938
AACACC,1.15,0.994,1.09
GTGCAC,0.987,0.615,0.934
TGTTAG,0.928,0.87,0.919
ACTGGG,0.782,0.738,0.84
CGAGAA,0.824,1.27,0.854

Sequence,binding signal (FEV),binding signal (CRX),binding signal (ELF5)
CGAACG,0.947,0.851,0.976
GCAGAT,0.899,1.21,0.881
AGATGG,0.801,0.871,0.863
GAAAGG,0.975,0.816,0.945
GAATAG,0.913,0.886,0.926
TCAAGC,0.995,1.06,0.93
GTGGTC,0.784,0.566,0.859
TGTGCA,1.1,0.83,0.999
TGAACG,0.896,0.823,0.886
TCCGAG,0.922,0.891,0.965
CTTGAG,0.88,0.982,0.965
GCCATC,0.927,0.765,0.89
GCGAAG,0.843,0.808,0.78
AGTACG,0.885,0.76,0.953
GTAGAA,0.888,0.933,0.892
CTAAGG,0.936,1.12,0.978
TCGATG,0.974,0.98,1.07
GTTGCT,1.18,1.06,1.27
TGTGGC,1.13,0.833,0.902
CGTCGA,0.864,0.812,0.918
GTTGAA,0.849,0.73,0.836
GCCTAG,0.909,0.976,0.848
AGATTA,0.965,4.03,0.948
ACGCCA,0.92,0.721,0.864

Sequence,binding signal (FEV),binding signal (CRX),binding signal (ELF5)
CAGAAA,0.935,1.07,0.887
AGCATG,0.935,0.807,0.798
TGGTCG,0.851,0.649,0.906
AGAACA,0.967,1.22,0.997
AGACTC,0.952,0.908,0.888
GATGGG,0.895,0.825,0.982
TATACC,1.23,1.26,1.22
AGAGAA,0.775,0.902,0.797
GTCACC,0.925,0.605,0.905
TAGGCC,1.05,1.21,0.921
GATCAA,0.956,1.52,0.899
AGCATA,0.895,1,0.902
CCCAAG,0.96,0.917,0.968
GCTAGT,1.03,0.952,0.962
CGCAAT,0.951,0.805,0.847
TTGGGA,0.888,1.04,0.91
GTTCAG,0.908,0.777,0.901
CGATGC,1.07,0.846,0.957
GTGCTG,0.865,0.657,0.837
GTGTTC,1.08,0.794,
TCAGAC,0.932,0.879,0.839
GTACAG,0.936,0.711,0.903
GTTTAT,1.02,1.33,
TGGTGG,0.974,0.789,0.986

Sequence,binding signal (FEV),binding signal (CRX),binding signal (ELF5)
CGAGTA,0.781,0.847,0.826
AACCGA,0.985,0.997,0.938
GTGACT,0.977,0.729,0.906
GTGCCG,0.979,0.549,0.839
GTCGAC,1.02,0.715,0.981
CCTTGC,1.27,1.02,
GTTGGT,0.799,0.703,0.905
ACCCTG,1.02,0.938,
CGTCAA,1.08,0.873,
CGTTGC,1.11,0.755,
GAAAGT,0.794,0.842,0.87
CCACAT,1.27,0.897,
GTGTTT,1.09,0.944,
TGGGTT,0.999,0.996,1.01
AATCGT,0.882,1.15,0.936
GTATCG,0.905,0.77,0.876
GCTAGA,0.945,1.15,0.995
ATAAGG,0.932,1.28,
CGGCTG,0.959,0.791,0.879
TGTGCG,0.971,0.821,
TGTCAA,0.947,0.837,
AGAAGT,0.899,0.997,
GTCTAT,0.969,0.843,1.08
CACTTT,1.18,1.14,

Sequence,binding signal (FEV),binding signal (CRX),binding signal (ELF5)
ACTAGA,0.951,1.16,0.906
GCATTT,1.57,1.16,1.4
CCATCA,1.13,1.04,
CAAAAG,0.93,1.02,1
ACAAGT,0.864,0.802,0.921
AACGCG,0.966,0.883,
GGTTAT,0.977,1.04,
GCTATC,1.08,0.949,
TGGAAG,0.861,0.909,
TGACAT,1.23,0.975,
TGGTTG,0.874,0.692,
CACAAA,1.09,0.979,
TGTACG,1.2,0.864,
CACAAC,1.31,0.87,
CCTCGC,1.37,1.16,
GTTTGC,0.961,0.857,
AGTCCT,0.987,0.953,
ACGATG,1.05,0.947,
ACCGGC,1.14,0.874,
CCAACC,1.1,0.767,
GGTTCT,0.91,0.943,
AGGAAC,0.925,0.653,
GTAGTT,0.945,0.799,
AGTACC,0.981,0.727,

# In a second layout: results already given.
Sequence | binding signal (FEV) | binding signal (CRX) | binding signal (ELF5)
GCATTT | 1.57 | 1.16 | 1.4
CCATCA | 1.13 | 1.04 | 
CAAAAG | 0.93 | 1.02 | 1
ACAAGT | 0.864 | 0.802 | 0.921
AACGCG | 0.966 | 0.883 | 
GGTTAT | 0.977 | 1.04 | 
GCTATC | 1.08 | 0.949 | 
TGGAAG | 0.861 | 0.909 | 
TGACAT | 1.23 | 0.975 | 
TGGTTG | 0.874 | 0.692 | 
CACAAA | 1.09 | 0.979 | 
TGTACG | 1.2 | 0.864 | 
CACAAC | 1.31 | 0.87 | 
CCTCGC | 1.37 | 1.16 | 
GTTTGC | 0.961 | 0.857 | 
AGTCCT | 0.987 | 0.953 | 
ACGATG | 1.05 | 0.947 | 
ACCGGC | 1.14 | 0.874 | 
CCAACC | 1.1 | 0.767 | 
GGTTCT | 0.91 | 0.943 | 
AGGAAC | 0.925 | 0.653 | 
GTAGTT | 0.945 | 0.799 | 
AGTACC | 0.981 | 0.727 | 

# — PMC7862700
